From US20260209267 (published 2026) come the findings set out here.

A short description of the data set: general procedure: Fmoc solid-phase peptide synthesis; 2-chlorotrityl chloride resin (100-200 mesh, 1% DVB), Fmoc-Asp(O-Trt(2-Cl)-resin) amides; COMU/DIPEA (cyclisation). The following applies: for step yield: recovery rate.

Turning to “(3S,6S,9S,12S,16S,19S,25S,28S,31S,36aS)-25,28-benzyl-19-((R)-1-hydroxyethyl)-3,31-diisobutyl-9-isopropyl-2,6,8,15,16,21,24,27,30-nonamethyl-12-(piperidine-1-carbonyl)tetracosahydropyrrolo[2,1-1][1,4,7,10,13,16,19,22,25,28,31]undecaazacyclotetratriacontin-1”, the “purity (crude or final not stated)” value (whole synthesis, HPLC peak area percentage, scale of the general procedure usually 100 mg resin per reaction vessel, run 1) is recorded as 85.7%.
“(3S,6S,9S,12S,18S,22S,25S,28S,31S,34S,37S)-6-(cyclohexylmethyl)-31-(cyclopentylmethyl)-34-[(3,4-difluorophenyl)methyl]-28-[(4-fluorophenyl)methyl]-3-isobutyl-25-isopropyl-9,10,18,19,26,29,35-heptamethyl-22-(pyrrolidin-1-carbonyl)-1,4,7,10,16,19,23,26,29,32,3”: the “final HPLC purity” value runs as follows: (purification step, HPLC peak area percentage) 88% purity; (purification step, peak area percentage, run 1) 90%; (purification step, peak area percentage, run 2) 93% purity; (whole synthesis, 220 nm, scale of the general procedure usually 100 mg resin per reaction vessel) 84% purity [peak area percentage]. Also, the step yield by setting is: (purification step, run 1) 82%; (purification step, run 2) “recovery rate 73%”. Also, where the note is “whole synthesis, scale of the general procedure usually 100 mg resin per reaction vessel”, the isolated yield turned out to be 68%.
